# Measured values published in article PMC7819943, “Rice protein-binding microarrays: a tool to detect cis-acting elements near promoter regions in rice”.
# Chains of the proteins cited; added tags and fusions are not shown.
# UniProt Q0JBA9, entry or part of it: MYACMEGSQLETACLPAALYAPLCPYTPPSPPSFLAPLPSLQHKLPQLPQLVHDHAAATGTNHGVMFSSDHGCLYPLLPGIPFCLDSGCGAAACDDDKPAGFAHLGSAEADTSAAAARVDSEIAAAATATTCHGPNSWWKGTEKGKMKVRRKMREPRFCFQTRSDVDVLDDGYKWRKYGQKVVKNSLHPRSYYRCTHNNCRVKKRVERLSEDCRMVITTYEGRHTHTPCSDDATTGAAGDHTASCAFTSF
# The other results are listed elsewhere or left out.
# Target: OsWRKY34 (Oryza sativa, UniProt Q0JBA9 1-250)
# Experiment: protein-binding microarray (RPBM); PBS, 2% BSA, 51.3 ng/ul salmon testes DNA, 50 uM zinc acetate, 200 nM TF, 25 C, 1 h; high values mean tight binding
# Conditions: protein: recombinant; tags: N-terminal polyhistidine and DsRed monomer fusion (pET32a); label: CyDye5-dUTP incorporated in the synthesized complementary strand; 3' TTTTT single-stranded linker to array surface; dsDNA, one strand shown
# Outline: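 Binding signal is defined as the fluorescence intensity of each feature in arbitrary units, read on an Axon 4000B scanner. Transcription factors with N-terminal polyhistidine and DsRed fusions came from E. coli BL21-CodonPlus and were purified on Ni–NTA. They were incubated at 200 nM for 1 h at 25 °C on a custom Agilent array that had been made double-stranded with Cy5-dUTP, with 50 µM zinc acetate present, and the array was washed.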
row,Sequence,binding signal
1,CTCTCCACCACCGCCGCGCCGCCGCACCATCCTCCTCTCTCGGAGTCACCTAGTGCAG,9260 fluorescence intensity (a.u.)
2,CTCTCTTTGTTGTATGTTACTAGTAGGTTGGATGAATATTCGGAGTCACCTAGTGCAG,8570 fluorescence intensity (a.u.)
3,ACAGCAATACCCAAACTATACGCTCCATACATCTGCCAGTCGGAGTCACCTAGTGCAG,8860 fluorescence intensity (a.u.)
4,GCCGAGGTGGAAGGCGACTCGATGGATGGGGTGGGGACTGCGGAGTCACCTAGTGCAG,13700 fluorescence intensity (a.u.)
5,TCTATCTATCACTTTTACAATATTTAACATATACTTATCACGGAGTCACCTAGTGCAG,8960 fluorescence intensity (a.u.)
6,CTTTGGGCCGGGATGACACACTAAACCAAGTTTAAGGATCCGGAGTCACCTAGTGCAG,8480 fluorescence intensity (a.u.)
7,GATGTCTGTTTCGTACCCGGTTGTCTATGTGAGCCCTTATCGGAGTCACCTAGTGCAG,9000 fluorescence intensity (a.u.)
8,TCTTTAGCATGATACTTACTTTGATTGCCAGCTGCACTCTCGGAGTCACCTAGTGCAG,8620 fluorescence intensity (a.u.)
9,ATCGCAACAAACGACTCCCAGCTGCAGCCGTTTCCATCACCGGAGTCACCTAGTGCAG,8490 fluorescence intensity (a.u.)
10,GGGGAGGCGAGGCGGCGAGGTTATAAAAACGGTGGGGTGGCGGAGTCACCTAGTGCAG,12200 fluorescence intensity (a.u.)
11,AGTTTGATTTGTTATTTTTGTTACAACTTGTAGAATTTGACGGAGTCACCTAGTGCAG,8580 fluorescence intensity (a.u.)
12,GCGGAGGTGGTGGTGGTGCGGGAGTAGGGAGGCGGGCGAACGGAGTCACCTAGTGCAG,13800 fluorescence intensity (a.u.)
13,TCTATCTGCCTGACTATCTCTATCTCGATCTCGTCCAGGACGGAGTCACCTAGTGCAG,9860 fluorescence intensity (a.u.)
14,ACTCTTATTTTAATATTTCTTATTTTTAATTCCTAATTTTCGGAGTCACCTAGTGCAG,9760 fluorescence intensity (a.u.)
15,CTTCTTCCTAGCATTCCTTATGCTGCGTGATTCATATATACGGAGTCACCTAGTGCAG,9380 fluorescence intensity (a.u.)
16,AGTGGGTGAGGGTTGTAGAGGAAGGCATGCGAAGGAAAATCGGAGTCACCTAGTGCAG,8610 fluorescence intensity (a.u.)
17,GTTTTGCCGTTTTGCTGTGGTGCACAAAAGAACTTGTTCACGGAGTCACCTAGTGCAG,8740 fluorescence intensity (a.u.)
18,AATTTCACCTGTACAAAACATTTGCCTCAATGTCTGTTTTCGGAGTCACCTAGTGCAG,12700 fluorescence intensity (a.u.)
19,TGTGTCTCTTCTTTTTTCGCGAACGCGTAAAATTTGTGTCCGGAGTCACCTAGTGCAG,10100 fluorescence intensity (a.u.)
20,CTCAGCGCCATTCCATCTTGCATTGACCTATGCCGGCTCACGGAGTCACCTAGTGCAG,10600 fluorescence intensity (a.u.)
21,TGATACTTGGCAGGCGTCGTCTCCAAATACCTGACCACTTCGGAGTCACCTAGTGCAG,8290 fluorescence intensity (a.u.)
22,GCTCTCTCTCTCATGCCGCAACCGACGAATCCCGGCACATCGGAGTCACCTAGTGCAG,9330 fluorescence intensity (a.u.)
23,CTCGCGTGCGTGTGTGTTGTGCTTTCCAGTGATCTCGCCGCGGAGTCACCTAGTGCAG,9710 fluorescence intensity (a.u.)
24,TTTTGAGGTGGTTTTGTAATTTTTCCAGAATTAATTTTGTCGGAGTCACCTAGTGCAG,9090 fluorescence intensity (a.u.)
25,CACGCGCCGCCGCCGCCGCCGCCGGACCTCCTCCCCACCCCGGAGTCACCTAGTGCAG,8760 fluorescence intensity (a.u.)
26,CCGACACCCTCGCCAATCCCGTCGTGCTCACCGCCGGCCACGGAGTCACCTAGTGCAG,8900 fluorescence intensity (a.u.)
27,ACTTAGCTGCTCATTGAGCATACCTGATTTTGGTATTTTTCGGAGTCACCTAGTGCAG,8360 fluorescence intensity (a.u.)

row,Sequence,binding signal
1,TTGACACTGAACGATACTCCAGGTTTGATGATCCACTTGACGGAGTCACCTAGTGCAG,9060 fluorescence intensity (a.u.)
2,GAAATTAATTTAGCTCTACATCCGTTCTGTTTATGAATAACGGAGTCACCTAGTGCAG,8380 fluorescence intensity (a.u.)
3,CTGATATCTTGAGCCACTTGTTGCTGCCACTCTGCCATAACGGAGTCACCTAGTGCAG,10000 fluorescence intensity (a.u.)
4,GTCCCCACCACCACCACCTCCTCCCCGGCGCCGTCCTACACGGAGTCACCTAGTGCAG,10200 fluorescence intensity (a.u.)
5,ATGCCTAATTAATAGATAACTGTCATGTCGCATCCTTCTTCGGAGTCACCTAGTGCAG,8280 fluorescence intensity (a.u.)
6,GCTTAATAAATTCGTCTCGCGGTTTAATGTTGGATTCTGTCGGAGTCACCTAGTGCAG,9350 fluorescence intensity (a.u.)
7,ATAGAAGTTCGGATTGGGTTTCGTTCTTTTCTTCTTCTTTCGGAGTCACCTAGTGCAG,10400 fluorescence intensity (a.u.)
8,ATACTGTTTTTTTTGTTATTTATAAATTTTGTTTTTTTTCCGGAGTCACCTAGTGCAG,12300 fluorescence intensity (a.u.)
9,TTTTTCCAAACACCTTGCATGCAACACGATCTCGTCGATCCGGAGTCACCTAGTGCAG,8290 fluorescence intensity (a.u.)
10,GGACATGTTATGTGGTGGGTCCTGCCGAGATTTAGTCAACCGGAGTCACCTAGTGCAG,8330 fluorescence intensity (a.u.)
11,CCTACTTAATCCTTCATTAGCAAATATTTACTGTAGCAACCGGAGTCACCTAGTGCAG,8510 fluorescence intensity (a.u.)
12,AGGCACGACGGCCCATTGTGTTTCTCCATGGAAAAAGTATCGGAGTCACCTAGTGCAG,8870 fluorescence intensity (a.u.)
13,GCTTGTTTTTTCGATTACTTATAATTCACTAATTGAATTTCGGAGTCACCTAGTGCAG,8080 fluorescence intensity (a.u.)
14,GCTAGTTCATGGACGGTAAAAACCTACTCTTATTTACCTTCGGAGTCACCTAGTGCAG,8210 fluorescence intensity (a.u.)
15,AGTTGAGGGACCTTGCGTGTACTTTTCCCTTTATTTTCTCCGGAGTCACCTAGTGCAG,8580 fluorescence intensity (a.u.)
16,CCACCTTTGCCTCGTCGTCTCAATCGCCTTCGTCGGCCGTCGGAGTCACCTAGTGCAG,8370 fluorescence intensity (a.u.)
17,ACTCACTTTTCCCCAGCTTTTCCGCGCTTAATTTCTCGACCGGAGTCACCTAGTGCAG,12200 fluorescence intensity (a.u.)
18,GATGGTTCTATCGATATTTTGCAATGAGACTGTCATAAAACGGAGTCACCTAGTGCAG,12100 fluorescence intensity (a.u.)
19,ATTTCCTTCGCCGCCGCCGCCGGCTTCGTCTTCTTCCCCGCGGAGTCACCTAGTGCAG,9250 fluorescence intensity (a.u.)
20,TTTATATCTCTGTAATTATGTGTTTCTTCTGATCTGGAATCGGAGTCACCTAGTGCAG,9240 fluorescence intensity (a.u.)
21,CCTACTGACTACGCTCTACTTTTCTTTGTCCTTGGAGAATCGGAGTCACCTAGTGCAG,8900 fluorescence intensity (a.u.)
22,GGGCAGTGTTATTTACAATACTCCAGGTCAACGCTCACAGCGGAGTCACCTAGTGCAG,8170 fluorescence intensity (a.u.)
23,TTCTTTATTGAGGGTACTTGATTTGTCGATATATATTTATCGGAGTCACCTAGTGCAG,9020 fluorescence intensity (a.u.)
24,GCTTGTATATCCTCGATCTTGTAATTGACCCGAGAGTTTTCGGAGTCACCTAGTGCAG,10100 fluorescence intensity (a.u.)
25,CTTTGGGCAGAATTCTTCTTCTCTCTCGCGCGGCCCAAGTCGGAGTCACCTAGTGCAG,10800 fluorescence intensity (a.u.)
26,CTAGTATTACTTTTGTATCTAAATTTGGGCTAGGGATTATCGGAGTCACCTAGTGCAG,8140 fluorescence intensity (a.u.)
27,CATCGCGGTGGGGCCCACCTGTCAGCCACAGCCCCGACGACGGAGTCACCTAGTGCAG,8240 fluorescence intensity (a.u.)

# Some of the entries above in another layout.
row | Sequence | binding signal
14 | GCTAGTTCATGGACGGTAAAAACCTACTCTTATTTACCTTCGGAGTCACCTAGTGCAG | 8210 fluorescence intensity (a.u.)
15 | AGTTGAGGGACCTTGCGTGTACTTTTCCCTTTATTTTCTCCGGAGTCACCTAGTGCAG | 8580 fluorescence intensity (a.u.)
16 | CCACCTTTGCCTCGTCGTCTCAATCGCCTTCGTCGGCCGTCGGAGTCACCTAGTGCAG | 8370 fluorescence intensity (a.u.)

# Individual results from above.
# In binding signal, GGACATGTTATGTGGTGGGTCCTGCCGAGATTTAGTCAACCGGAGTCACCTAGTGCAG shows 8330 fluorescence intensity (a.u.)
# In binding signal, TTCTTTATTGAGGGTACTTGATTTGTCGATATATATTTATCGGAGTCACCTAGTGCAG shows 9020 fluorescence intensity (a.u.)
